This passage reports IC50 results from PMC4211885 (PLoS ONE, 2014).

Amino acid sequences for entries named in this document (tags omitted).
UniProt D9U2B9, entry or part of it: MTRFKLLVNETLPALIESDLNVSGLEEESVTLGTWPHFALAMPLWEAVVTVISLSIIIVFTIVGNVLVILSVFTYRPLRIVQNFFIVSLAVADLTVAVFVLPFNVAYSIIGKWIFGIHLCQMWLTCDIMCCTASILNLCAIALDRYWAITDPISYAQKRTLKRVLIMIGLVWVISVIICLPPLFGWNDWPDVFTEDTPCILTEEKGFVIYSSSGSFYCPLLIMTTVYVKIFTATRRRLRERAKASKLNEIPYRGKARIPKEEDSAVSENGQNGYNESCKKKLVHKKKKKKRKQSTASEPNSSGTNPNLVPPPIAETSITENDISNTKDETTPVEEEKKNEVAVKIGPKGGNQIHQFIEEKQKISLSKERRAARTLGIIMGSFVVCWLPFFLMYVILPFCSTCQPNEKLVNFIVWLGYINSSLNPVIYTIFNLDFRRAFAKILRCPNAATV

The test has as its target OA/TAMac receptor (Macrobrachium rosenbergii, UniProt D9U2B9). Briefly: Antagonist block of ID evoked by 50 µM octopamine in OA/TAMac-injected oocytes. The format is cell-based. Here is the method:
Recordings were performed 1–3 days post-injection at room temperature (20–22°C). Currents were recorded under two-electrode voltage clamp using an Axoclamp 900a amplifier (Molecular Devices LLC, CA USA). A digidata 1440a analog to digital converter was used in conjunction with pCLAMP 10 software (Molecular Devices) for data acquisition and to generate voltage commands. For each step protocol or chemical application data were typically sampled at 5 KHz and filtered digitally at 1 KHz. For the duration of each experiment the current was also continuously sampled at 1 kHz using a separate minidigi 1A digitizer (Molecular Devices). Glass microelectrodes were pulled from filamented 1.2 mm thin wall borosilicate glass (World Precision Instruments, Sarasota, FL) using a Sutter Instruments P-97 puller. They were filled with 3 M KCl and had resistances of 0.8–2.0 MΩ. A silver chloride pellet immersed in 3 M KCl and connected to the bath via a 3% agar bridge made with 3 M KCl was used as the reference electrode.
In experiments where more than three drugs or concentrations were tested a precisely controlled 30 s perfusion-switch was used. Up to eight channels were connected to the bath via an 8-way manifold. There was an approximately 6–7 s delay for solutions to traverse the dead volume between the manifold and the bath.

The structures appear in SMILES notation. pIC50: −log10 of the molar value. Where two headings read alike, the source gives them in different places.

`CN1CCN2c3ccccc3Cc3ccccc3C2C1` (centres unmarked) [mianserin]: the pIC50 (antagonist applied as mixture with 50 µM octopamine, 30 second perfusion-switch, −60 mV, estimated graphically, read-out: IC50 for block of octopamine-evoked ID) was ~4.49.

For `O=C(CCCN1CCC(O)(c2ccc(Cl)cc2)CC1)c1ccc(F)cc1` [haloperidol], the negative logarithm of the IC50 (pIC50) was ~5.38.

Usually pIC50 stands for the negative decadic logarithm of the IC50, by convention in mol/L.
